The values that follow come from article PMC7862700.

Chains of the proteins cited; added tags and fusions are not shown. Lines headed by an entry give the natural chain unless they say otherwise; changes in a name come on top.
UniProt P50549: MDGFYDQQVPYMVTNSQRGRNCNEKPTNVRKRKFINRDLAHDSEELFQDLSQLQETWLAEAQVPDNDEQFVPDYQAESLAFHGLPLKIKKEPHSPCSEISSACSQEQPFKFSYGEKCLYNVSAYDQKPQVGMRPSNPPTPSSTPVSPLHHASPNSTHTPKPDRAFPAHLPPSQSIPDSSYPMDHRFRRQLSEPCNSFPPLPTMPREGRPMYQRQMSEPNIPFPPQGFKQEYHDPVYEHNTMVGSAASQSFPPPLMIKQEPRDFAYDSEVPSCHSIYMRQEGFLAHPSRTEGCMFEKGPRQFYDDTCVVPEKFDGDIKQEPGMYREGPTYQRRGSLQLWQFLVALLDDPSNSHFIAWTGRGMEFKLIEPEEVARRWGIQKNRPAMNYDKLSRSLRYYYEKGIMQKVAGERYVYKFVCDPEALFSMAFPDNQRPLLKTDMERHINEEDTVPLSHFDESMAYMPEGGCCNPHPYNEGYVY

This is a selection; strong and weak results do not stand in their true shares. For part of these data: At the low end of the ranking the order means little. The list shows a part of the results. For part of these data: The exact form of the protein is not confirmed.

Common to all, as to test: DAPPL (digital affinity profiling via proximity ligation, sequencing)
What all share (settings): 10 mM Tris-HCl pH 7.5, 50 mM NaCl, 1 mM DTT, 4% glycerol, room temperature, 30 min; GST-TFs on glutathione beads, 16-mer random dsDNA library, 0.1% …; high values mean tight binding; double strand, one strand shown; scale: fold enrichment (6-mer frequency, TF over GST control)

One assay concerns the target T1, ERG (UniProt P11308).
T1 sequence: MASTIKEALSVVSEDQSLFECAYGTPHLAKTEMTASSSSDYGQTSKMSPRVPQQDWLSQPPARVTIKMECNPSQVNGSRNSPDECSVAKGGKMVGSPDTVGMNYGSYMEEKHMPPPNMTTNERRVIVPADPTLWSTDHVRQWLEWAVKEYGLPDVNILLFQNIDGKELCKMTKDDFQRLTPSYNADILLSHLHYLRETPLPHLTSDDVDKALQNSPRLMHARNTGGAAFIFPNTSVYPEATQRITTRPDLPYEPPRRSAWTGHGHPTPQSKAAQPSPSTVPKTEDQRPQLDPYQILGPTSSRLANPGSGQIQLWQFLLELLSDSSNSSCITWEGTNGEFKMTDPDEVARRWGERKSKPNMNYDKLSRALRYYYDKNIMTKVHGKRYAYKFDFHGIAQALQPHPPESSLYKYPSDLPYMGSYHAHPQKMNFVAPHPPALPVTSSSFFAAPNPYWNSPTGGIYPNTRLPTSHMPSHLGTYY

In another assay the target is T2, ETV4 (UniProt P43268).
T2 sequence: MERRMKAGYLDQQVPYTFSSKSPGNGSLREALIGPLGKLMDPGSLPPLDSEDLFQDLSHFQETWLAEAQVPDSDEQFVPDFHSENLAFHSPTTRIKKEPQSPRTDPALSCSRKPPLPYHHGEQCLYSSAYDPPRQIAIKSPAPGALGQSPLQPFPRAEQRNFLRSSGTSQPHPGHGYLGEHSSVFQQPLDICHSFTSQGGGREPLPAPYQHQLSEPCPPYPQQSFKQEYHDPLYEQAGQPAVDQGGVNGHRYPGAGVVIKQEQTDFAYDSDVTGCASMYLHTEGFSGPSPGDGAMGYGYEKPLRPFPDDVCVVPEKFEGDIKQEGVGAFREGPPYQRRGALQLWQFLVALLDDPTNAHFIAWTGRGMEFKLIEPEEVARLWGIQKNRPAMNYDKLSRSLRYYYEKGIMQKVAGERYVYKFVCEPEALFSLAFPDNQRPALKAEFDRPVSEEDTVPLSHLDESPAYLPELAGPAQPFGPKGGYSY

The target in the next assay is ETV1 (UniProt P50549).

As to ACCGCA, the results for the binding signal with ERG and in the assay with ETV4 were 1.11 and 1.22, respectively.
TTTTCG: the binding signal with ETV4 amounted to 1.18.
Regarding CATAAT, the figures for the binding signal with ERG and in the assay with ETV4 were 1.1 and 0.963, respectively.
TCGTCT: the binding signal in the assay with ETV4 turned out to be 1.41.
Turning to TTATAT, the binding signal worked out at 1.4 with ERG and 1.25 in the assay with ETV4.
In the same order, the values of CGTAAC are 1.07 and 1.08.
In the case of GTTTGC, the results for the binding signal with ERG and with ETV4 were 0.971 and 1.19, respectively.
Turning to AAATAG, in the assay with ETV4, the binding signal is 1.11.
CCTTTA: the binding signal with ERG came out at 1.21; with ETV4 it was 1.3.
Turning to ACTACA, the binding signal came to 1.16 with ERG and 1.19 with ETV4.
GCTACG came in with a binding signal with ETV4 of 1.27.
With CTAAAT, the binding signal amounted to 1.34 with ERG and 1.27 with ETV4.
In the case of GTTTCT, the figures for the binding signal in the assay with ERG and in the assay with ETV4 were 1.22 and 1.27, respectively.
For TTGTTA the same measures were 1.33 and 1.31.
For the sequence GATAAT, the binding signal in the assay with ETV4 was determined as 1.03.
For the sequence CTTCCC, the binding signal with ERG was 2.19; with ETV4, 2.13.
As to ATCCAT, the binding signal in the assay with ERG came to 1.11; in the assay with ETV4, 1.12.
In the case of ATACTT, the figures for the binding signal with ERG and in the assay with ETV4 were 1.68 and 1.69, respectively.
For ACTCAT the same measures were 1.16 and 1.43.
For the sequence CATGTA, the results for the binding signal in the assay with ERG and in the assay with ETV4 were 0.961 and 1.06, respectively.
Regarding TCGACG, the binding signal with ERG is 1.04; with ETV4, 1.02.
For AGCTAG the same measures were 0.981 and 1.03.
With AAGCGG, the binding signal with ERG was 1.1; in the assay with ETV4 it was 1.11.
Turning to GCGCTT, the binding signal with ERG was 1.24; with ETV4, 1.4.
As to TTGTGC, the binding signal was 1.23 in the assay with ERG and 1.35 with ETV4.
Consider GATCCA, for which the binding signal with ERG stood at 1.03; with ETV4, 1.07.
Consider TAATTC, for which the binding signal turned out to be 1.48 in the assay with ERG and 1.28 in the assay with ETV4.
Turning to TGCATT, the binding signal in the assay with ERG was found to be 1.24; in the assay with ETV4, 1.31.
Consider GCCTTA, for which the results for the binding signal in the assay with ERG and with ETV4 were 1.21 and 1.18, respectively.
For CTACAT, the binding signal was found to be 1.32 with ERG and 1.39 with ETV4.
For the sequence TAGCTG, the binding signal with ERG stood at 1.11; with ETV4 it was 1.19.
Take TTGCAG: the binding signal with ERG amounted to 1.15; in the assay with ETV4 it was 1.02.
Turning to TGATGT, the binding signal amounted to 1.13 in the assay with ERG and 1.21 with ETV4.
ATGGGG: the binding signal with ERG is 1.07; with ETV4 it was 0.949.
With TATACC, the binding signal in the assay with ERG and with ETV4 was 1.2 each time.
Consider TCTCAG, for which the binding signal with ERG stood at 1.43; in the assay with ETV4, 1.38.
Take TCATAT: the figures for the binding signal with ERG and with ETV4 were 1.2 and 1.27, respectively.
Take TGGACA: the binding signal with ERG and with ETV4 was 1.05 each time.
Turning to CTATCA, the values for the binding signal with ERG and with ETV4 were 0.99 and 1.06, respectively.
For AACTAG the same measures were 1.21 and 1.08.
Take CGGTCT: the binding signal in the assay with ERG came out at 1.18; with ETV4, 1.25.
With CTGAAG, the binding signal came out at 1.08 with ERG and 1.13 with ETV4.
For CTTACT the same measures were 1.27 and 1.27.
For the sequence TTGAAA, the binding signal with ERG is 1.09; with ETV4 it was 1.17.
On to CCTCTG, for which the binding signal with ERG stood at 1.62; with ETV4, 1.56.
GTTTGA: the binding signal with ERG was found to be 1.12; in the assay with ETV4, 1.18.
Consider AGCAAA, for which the results for the binding signal with ERG and with ETV4 were 0.991 and 1.02, respectively.
Consider TTAATC, for which the binding signal in the assay with ERG came out at 1.17; with ETV4, 1.19.
For TTGGTA, the binding signal in the assay with ERG was 1.13; in the assay with ETV4, 1.2.
In the case of TTCTAC, the binding signal with ERG turned out to be 1.53; with ETV4 it was 1.52.
Take TTTCCC: the binding signal was 1.88 with ERG and 1.58 with ETV4.
In the same order, the values of GGTGGT are 1.12 and 0.99.
For TAGTTC, the binding signal with ERG was found to be 1.45; with ETV4, 1.46.
For TCAGCT the same measures were 1.06 and 1.17.
For CTCGCA the same measures were 1.29 and 1.3.
As to CCTTCT, the figures for the binding signal in the assay with ERG and with ETV4 were 1.54 and 1.68, respectively.
For the sequence GTCCCC, the figures for the binding signal with ERG and in the assay with ETV4 were 1.23 and 1.15, respectively.
For GGACCT, the binding signal with ERG turned out to be 1.33; with ETV4, 1.39.
For the sequence CTACCC, the binding signal with ERG turned out to be 1.36; with ETV4 it was 1.31.
In the case of GTTATC, the binding signal with ERG is 1.1; with ETV4, 1.09; with ETV1, 0.962.
For CTCCGA, the binding signal in the assay with ERG was 1.34; with ETV4, 1.43.
TAACGC: the binding signal in the assay with ERG is 1.17; with ETV4, 1.16; with ETV1 it was 1.12.
Turning to AAAGCC, the binding signal with ERG stood at 0.922; in the assay with ETV4, 0.979.
